Earlier results in patent US20220193085A1, “METHODS OF THROMBOPROPHYLAXIS” (JANSSEN PHARMACEUTICALS, INC., priority 2020, published 2022).
At least one read-out could not be matched to a standard name with certainty.

Details: parameter estimate identified for adult population; cited from earlier work

O=C(NC[C@H]1CN(c2ccc(N3CCOCC3=O)cc2)C(=O)O1)c1ccc(Cl)s1 [Rivaroxaban, 5-chloro-N-({(5S)-2-oxo-3-[4-(3-oxo-4-morpholinyl)phenyl]-1,3,oxazolidin-5-yl}methyl)-2-thiophenecarboxamide]
D50 of relative bioavailability function: 14.4 mg | Fmax of relative bioavailability function: 1.25 | Fmin of relative bioavailability function: 0.590
